Chains of the proteins cited; added tags and fusions are not shown. Lines headed by an entry give the natural chain unless they say otherwise; changes in a name come on top.
UniProt O43186: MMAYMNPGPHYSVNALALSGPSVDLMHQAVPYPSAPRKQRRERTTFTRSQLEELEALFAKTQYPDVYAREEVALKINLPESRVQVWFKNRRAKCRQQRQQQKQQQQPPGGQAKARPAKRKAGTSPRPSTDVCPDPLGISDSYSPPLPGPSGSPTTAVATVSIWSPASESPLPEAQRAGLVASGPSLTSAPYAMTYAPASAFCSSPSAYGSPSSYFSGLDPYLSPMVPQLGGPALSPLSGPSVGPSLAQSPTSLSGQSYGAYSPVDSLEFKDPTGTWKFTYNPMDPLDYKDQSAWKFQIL

This is a selection; strong and weak results do not stand in their true shares. At the low end of the ranking, values are background and their order means little.
These sequences were tested against CRX (UniProt O43186) (assay: DAPPL (digital affinity profiling via proximity ligation, sequencing)). Conditions: 10 mM Tris-HCl pH 7.5, 50 mM NaCl, 1 mM DTT, 4% glycerol, room temperature, 30 min; GST-TFs on glutathione beads, 16-mer random dsDNA library, 0.1% …; high values mean tight binding; double strand, one strand shown; scale: fold enrichment (6-mer frequency, TF over GST control).
With TATCGT the binding signal was 1.28.
ATTCTG gave a binding signal of 1.5.
For CATCTG, the binding signal was 1.15.
CCCATG gave a binding signal of 0.971.
With ATCATT the binding signal was 1.28.
With GCTCAG the binding signal was 1.41.
TGTGAC gave a binding signal of 0.845.
In the case of GGTATA, the binding signal was 1.02.
Work on GATTAT yielded a binding signal of 4.27.
For TCTTTA, the binding signal was 1.93.
Work on GCTGTA yielded a binding signal of 1.02.
For TATCTA, the binding signal was 1.73.
Work on CAATAT yielded a binding signal of 1.15.
For GTTTGG, the binding signal was 0.801.
Sequence TGCTGT has a binding signal of 0.84.
ACATGG showed a binding signal of 0.892.
CTCAGA gave a binding signal of 1.27.
Sequence CAACCA has a binding signal of 0.78.
With GTATTC the binding signal was 1.13.
ATGGCT was tested, and the binding signal was 1.48.
Sequence CACGAA has a binding signal of 0.988.
With GCTTTC the binding signal was 1.33.
TTGCCG showed a binding signal of 0.895.
Sequence CAAATT has a binding signal of 1.12.
AGAAGC gave a binding signal of 1.32.
In the case of ATTGAC, the binding signal was 1.11.
For TACTCG, the binding signal was 1.38.
Work on CCCGAC yielded a binding signal of 1.06.
TGCCGC gave a binding signal of 0.921.
In the case of TTCTGC, the binding signal was 1.36.
TGATGG gave a binding signal of 1.1.
With CCGATG the binding signal was 0.905.
GGATCC was tested, and the binding signal was 0.997.
ATGTCC was tested, and the binding signal was 0.937.
In the case of TATGGA, the binding signal was 1.4.
For TCCTCT, the binding signal was 1.79.
Work on CTAAGT yielded a binding signal of 1.8.
CTATGA was tested, and the binding signal was 0.965.
Work on TATCCT yielded a binding signal of 2.28.

What follows are sequences tested against T1, ELF5 (UniProt Q9UKW6-2) in the same assay as above. Conditions: 10 mM Tris-HCl pH 7.5, 50 mM NaCl, 1 mM DTT, 4% glycerol, room temperature, 30 min; GST-TFs on glutathione beads, 16-mer random dsDNA library, 0.1% …; high values mean tight binding; double strand, one strand shown; scale: fold enrichment (6-mer frequency, TF over GST control).
T1 sequence: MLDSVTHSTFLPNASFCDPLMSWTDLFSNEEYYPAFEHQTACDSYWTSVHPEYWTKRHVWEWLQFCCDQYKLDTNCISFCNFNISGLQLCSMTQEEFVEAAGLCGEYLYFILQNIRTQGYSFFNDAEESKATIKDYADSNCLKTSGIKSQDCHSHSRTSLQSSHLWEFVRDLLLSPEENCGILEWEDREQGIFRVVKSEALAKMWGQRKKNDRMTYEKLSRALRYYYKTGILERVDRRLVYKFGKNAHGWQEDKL
TATCGT gave a binding signal of 1.08.
In the case of ATTCTG, the binding signal was 1.21.
CATCTG showed a binding signal of 1.23.
CCCATG gave a binding signal of 0.973.
ATCATT was tested, and the binding signal was 1.
GCTCAG was tested, and the binding signal was 1.01.
With TGTGAC the binding signal was 1.1.
With GGTATA the binding signal was 1.09.
GATTAT gave a binding signal of 1.04.
With TCTTTA the binding signal was 1.19.
Work on GCTGTA yielded a binding signal of 1.07.
TATCTA gave a binding signal of 1.18.
CAATAT gave a binding signal of 1.2.
With GTTTGG the binding signal was 1.1.
For TGCTGT, the binding signal was 0.927.
Work on ACATGG yielded a binding signal of 1.1.
For CTCAGA, the binding signal was 1.03.
In the case of CAACCA, the binding signal was 0.997.
GTATTC gave a binding signal of 1.31.
With ATGGCT the binding signal was 1.25.
In the case of CACGAA, the binding signal was 1.02.
For GCTTTC, the binding signal was 1.23.
In the case of TTGCCG, the binding signal was 1.07.
For CAAATT, the binding signal was 1.1.
In the case of AGAAGC, the binding signal was 1.18.
With ATTGAC the binding signal was 1.19.
TACTCG was tested, and the binding signal was 1.25.
Sequence CCCGAC has a binding signal of 1.38.
For TGCCGC, the binding signal was 1.22.
TTCTGC was tested, and the binding signal was 1.38.
TGATGG was tested, and the binding signal was 1.26.
CCGATG gave a binding signal of 0.949.
GGATCC was tested, and the binding signal was 1.13.
ATGTCC showed a binding signal of 1.65.
TATGGA gave a binding signal of 1.08.
Work on TCCTCT yielded a binding signal of 2.15.
With CTAAGT the binding signal was 1.17.
Work on CTATGA yielded a binding signal of 1.
Work on TATCCT yielded a binding signal of 2.65.

Source: article PMC7862700
